# Data from the supplement of paper PMC3334620.
# Whole data set: some 33,000 sequences, median “E-score (-0.5 to 0.5)” near -8e-05, cut for the highest 2% near 0.23. The list shows a part of the results.
# Target: T1, Nrg2 (UniProt P38082)
# T1 sequence: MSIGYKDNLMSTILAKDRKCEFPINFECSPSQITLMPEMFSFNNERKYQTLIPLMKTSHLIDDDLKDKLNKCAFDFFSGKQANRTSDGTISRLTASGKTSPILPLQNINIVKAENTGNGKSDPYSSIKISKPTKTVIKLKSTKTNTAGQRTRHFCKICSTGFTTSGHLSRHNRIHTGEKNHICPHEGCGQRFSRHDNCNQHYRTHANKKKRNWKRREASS
# Assay: PBM E-score (8-mer binding enrichment) (E-score (-0.5 to 0.5)); higher = stronger / more preferred TF binding
# Details: protein concentration: 100 nM; construct: GST-full length
# Procedure, shortened: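 Bound GST-tagged yeast transcription factors, applied at about 100-200 nM to double-stranded universal all-10-mer Agilent arrays, were detected with fluorescent anti-GST. Scans were normalised with masliner. A modified Wilcoxon-Mann-Whitney statistic, the E-score, was assigned to each ungapped eight-base word pooled with its reverse complement by the Universal PBM Analysis Suite.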
row,Sequence,PBM E-score
1,GTTTTGAA,0.14
2,AAGGTTCC,-0.145
3,ATCGCACC,-0.187
4,CCAAGTGA,-0.0202
5,GGCGTACC,0.059
6,TTCGCGAA,0.22
7,CATAGATA,0.204
8,CGGAAAGC,0.0105
9,ATCTGCCC,-0.118
10,AAACTTAG,-0.113
11,TCGATACA,0.243
12,ACTAGCAC,0.0506
13,CCGGTGAC,-0.192
14,ATTTTATA,0.188
15,AGTTGTAA,-0.0166
16,CTCCGATA,-0.0226
17,AGCAATGG,-0.149
18,GCTTCTAC,-0.123
19,AGGACAGA,0.0623
20,ATGGTGAG,-0.0343
21,GACCAGTC,-0.19
22,CTTGAATA,0.0214
23,CCTCCCAA,-0.094
24,CAAATTGC,0.0549
25,GGAGGAGA,-0.119

row,Sequence,PBM E-score
1,GAACTAGA,0.0203
2,ACGCTGCT,-0.144
3,GCAAATAA,0.149
4,ATATGCTA,0.0653
5,CGTCTCTA,-0.209
6,AACCTTCG,0.0698
7,CTGGCGAC,-0.0538
8,AACCGTCA,-0.14
9,GTACTCAC,0.138
10,TTGTCAAA,-0.0847
11,TAGGTAGA,0.136
12,AAGTAAAG,-0.074
13,CCTTCAAA,-0.027
14,ATTCCCAG,0.138
15,TTCTAAAA,-0.173
16,GTTAAAAC,-0.063
17,CATAACGG,-0.0744
18,GACCTAGA,-0.0801
19,CGCGTTAC,0.193
20,CGTCCTAA,-0.0452
21,CATTTCCC,0.201
22,ATAATGCC,0.00967
23,TACTCTGA,-0.0551
24,GCGTGCAC,-0.114
25,ATGTTGGA,0.184

# Looked up one by one from the entries so far:
row,Sequence,PBM E-score
18,GACCTAGA,-0.0801
14,ATTCCCAG,0.138
6,AACCTTCG,0.0698

# Looked up above:
# In PBM E-score, GAACTAGA is entered as 0.0203
# In PBM E-score, GTACTCAC is entered as 0.138
# In PBM E-score, CCTTCAAA is entered as -0.027

# Remaining list, next part.

row,Sequence,PBM E-score
1,GATACATC,0.134
2,AAAAAACT,-0.183
3,ATGTCTAC,-0.14
4,GGTTTTCA,0.153
5,GCTTTCCA,-0.0167
6,ACTTTAGC,-0.132
7,AGGGGAAC,-0.0636
8,CTCCAAAG,-0.0656
9,AAGATGCC,0.0488
10,AGGTATGG,-0.153
11,CATAAACC,0.147
12,CCTACTCG,-0.00961
13,AGGCCGAG,0.148
14,TGGCTGAA,-0.0484
15,ATGTCGGG,-0.0685
16,CAGATCGA,0.0435
17,GATAAGGA,-0.017
18,GGAAATGA,0.25
19,AACAACTG,0.136
20,AACACTAA,0.0197
21,CGCTAGCA,-0.136
22,AATCACGT,0.116
23,GCACGAAC,0.161
24,AGAGCACG,-0.14
25,GGAATCAC,0.0314

row,Sequence,PBM E-score
1,CCATCTAA,0.00279
2,AAATTAAG,0.00872
3,AGTTATTA,0.144
4,CCATGCGG,-0.0705
5,CTATAACC,-0.218
6,CTTCCTGC,-0.267
7,CAGTGCTA,-0.0422
8,CCCCCACG,-0.338
9,GTCATGCA,0.0135
10,ACATCGGA,-0.154
11,AGCCTGTG,-0.118
12,GACTTTAA,-0.0502
13,CACTGCCG,0.102
14,ATCTCTAC,0.176
15,ACAACTTA,-0.0192
16,AGACAGGG,0.0548
17,ATAACAAA,0.17
18,ACCTTGTG,-0.0454
19,GTCCGTTA,0.138
20,CGAATAGC,-0.0913
21,AAAATACA,0.0321
22,CAGTCACC,-0.216
23,GAAGGGCA,-0.0565
24,AGGATTTC,0.0761
25,ACGGGTCT,-0.109

row,Sequence,PBM E-score
1,CCTGTCAG,0.153
2,AAGTAGCA,0.075
3,ATGGAACC,0.00551
4,ACTGCGCC,-0.2
5,ACGTCGCT,-0.00568
6,AATCGGCG,0.0404
7,TAAGGTCA,0.0329
8,CCATAAGG,-0.143
9,CACTGCAA,0.0476
10,CGCCCGGA,0.13
11,GGTTCCAC,-0.0226
12,ATTGGGCA,0.0365
13,CAGTCTAG,-0.184
14,AGTTTCCG,0.119
15,ACGGCCCA,-0.125
16,ATCGCTGG,-0.163
17,CTAGGTCA,-0.0616
18,TGAATCAA,0.232
19,ATCATCTC,0.139
20,ACGTAGAA,0.0668
21,AAACACCA,-0.0101
22,GTTCAACA,0.103
23,AAAGTCTA,-0.0546
24,ATTCCACA,0.243
25,ACTGACGC,-0.0821

row,Sequence,PBM E-score
1,GAGAACAA,0.221
2,CACCTTCC,-0.0147
3,TGCTGCCA,-0.0663
4,CCCATCAA,0.0956
5,GTATAGGA,-0.0401
6,AAGTTCCC,-0.0166
7,GCCCCAGC,0.0519
8,AGGACTTG,-0.202
9,GCGAAGGA,-0.138
10,ACGAGCGT,-0.0647
11,CGTCTGGA,-0.252
12,AGCCATGC,-0.0314
13,AACTTAGA,0.0761
14,AGATGGGG,-0.0454
15,GGATCCTA,0.0664
16,ATTTCCAA,-0.0757
17,CTCGCGGA,0.0152
18,CCATCCAG,-0.107
19,GACATTGA,0.11
20,AAATAGCA,-0.076
21,AGCTTTAT,-0.0237
22,CACTAGAC,-0.0854
23,AGCTCACA,-0.0193
24,ACTGCTAA,-0.0497
25,ATAGTGCA,0.114

row,Sequence,PBM E-score
1,CCAACCGA,0.104
2,AGGCCCCA,-0.115
3,GATGCAGA,0.056
4,CCTGAACG,0.0198
5,CTAACGAG,-0.055
6,ACACACAA,0.0532
7,AGCTGAGG,-0.16
8,CGAGGACC,-0.056
9,CCGGTTCG,-0.125
10,CGAGCGCC,-0.107
11,ACCCCTAA,0.172
12,ACAAACGT,-0.0396
13,ACAAAGGT,0.103
14,GGTTTGAC,-0.147
15,CGTAGAAG,-0.049
16,ATACGTGG,-0.0714
17,TAAATCCA,0.18
18,ATATCTGG,0.0594
19,ACTACGAC,-0.011
20,CTTCATTC,0.0537
21,CTCCGCAG,0.0552
22,CTCGCTCA,0.069
